Reference: PMC10884759, “Decreased pyruvate dehydrogenase activity in Tafazzin-deficient cells is caused by dysregulation of pyruvate dehydrogenase phosphatase 1 (PDP1)” (The Journal of Biological Chemistry, 2024)
These are yes or no findings as the source states them, for the method shown. Binding seen in cells or lysates may run through a third protein. Some binding calls cover weakened binding; strength is not graded here. For some assays here: Where a sequence is shown, tags or fusion partners need not be part of it.

How the values were obtained:
[1] = molecular target: T1, recombinant PDP1 protein (PDP1-His6), mature polypeptide of pyruvate dehydrogenase phosphatase 1 (mouse (from the Ensembl transcript of the C3H/HeJ mouse strain; not stated in words for the cDNA)) (UniProt Q3UV70); assay: pull-down; purified PDP1-His6 immobilised on HisPur resin columns (Pierce polyHis pull-down kit); clarified lysates of WT and TAZ-KO C2C12 myoblasts (25 mM Tris, 75 mM NaCl, 0.1% Tween 20, pH 7.4) incubated overnight at 4 °C; 5 washes, elution, Western blot; only the target purified
T1 sequence: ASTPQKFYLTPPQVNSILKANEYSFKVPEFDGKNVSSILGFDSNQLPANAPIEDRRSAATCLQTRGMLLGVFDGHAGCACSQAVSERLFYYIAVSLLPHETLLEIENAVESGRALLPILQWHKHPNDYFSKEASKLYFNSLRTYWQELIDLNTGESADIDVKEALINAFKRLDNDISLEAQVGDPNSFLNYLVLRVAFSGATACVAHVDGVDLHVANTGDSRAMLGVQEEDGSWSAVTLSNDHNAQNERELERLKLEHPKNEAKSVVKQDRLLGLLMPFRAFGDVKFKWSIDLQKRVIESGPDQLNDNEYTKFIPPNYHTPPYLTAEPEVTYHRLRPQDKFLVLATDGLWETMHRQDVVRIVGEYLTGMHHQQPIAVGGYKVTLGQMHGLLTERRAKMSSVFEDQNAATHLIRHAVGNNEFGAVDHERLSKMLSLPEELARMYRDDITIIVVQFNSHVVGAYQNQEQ

[2] = molecular target: T2, endogenous pyruvate dehydrogenase phosphatase 1 (PDP1) (mouse (endogenous in C2C12)) (UniProt Q3UV70); assay: co-IP; endogenous proteins in WT and TAZ-KO C2C12 myoblast lysates, immunoprecipitated with specific antibodies, Western blot; negative control: WT lysate on empty beads without primary antibody
T2 sequence: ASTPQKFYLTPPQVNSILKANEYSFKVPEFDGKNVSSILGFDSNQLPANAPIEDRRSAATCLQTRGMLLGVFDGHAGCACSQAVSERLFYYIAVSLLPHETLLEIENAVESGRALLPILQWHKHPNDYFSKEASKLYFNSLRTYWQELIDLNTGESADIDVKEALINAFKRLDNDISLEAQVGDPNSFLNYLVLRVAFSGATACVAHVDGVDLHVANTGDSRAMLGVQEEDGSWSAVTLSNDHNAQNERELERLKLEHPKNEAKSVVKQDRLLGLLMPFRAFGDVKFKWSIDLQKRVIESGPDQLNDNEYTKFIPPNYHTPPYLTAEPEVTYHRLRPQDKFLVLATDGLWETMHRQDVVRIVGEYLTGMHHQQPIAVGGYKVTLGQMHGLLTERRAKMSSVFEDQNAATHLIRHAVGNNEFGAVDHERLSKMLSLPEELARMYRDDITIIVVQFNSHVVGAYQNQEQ

B1: dihydrolipoamide acetyltransferase (E2) subunit of the PDH complex (protein, UniProt Q8BMF4 86-642)
chain: SLPPHQKVPLPSLSPTMQAGTIARWEKKEGEKISEGDLIAEVETDKATVGFESLEECYMAKILVPEGTRDVPVGSIICITVEKPQDIEAFKNYTLDLAAAAAPQAAPAAAPAPAAAPAAPSASAPGSSYPTHMQIVLPALSPTMTMGTVQRWEKKVGEKLSEGDLLAEIETDKATIGFEVQEEGYLAKILVPEGTRDVPLGAPLCIIVEKQEDIAAFADYRPTEVTSLKPQAAPPAPPPVAAVPPTPQPVAPTPSAAPAGPKGRVFVSPLAKKLAAEKGIDLTQVKGTGPEGRIIKKDIDSFVPSKAAPAAAAAMAPPGPRVAPAPAGVFTDIPISNIRRVIAQRLMQSKQTIPHYYLSVDVNMGEVLLVRKELNKMLEGKGKISVNDFIIKASALACLKVPEANSSWMDTVIRQNHVVDVSVAVSTPAGLITPIVFNAHIKGLETIASDVVSLASKAREGKLQPHEFQGGTFTISNLGMFGIKNFSAIINPPQACILAIGASEDKLIPADNEKGFDVASVMSVTLSCDHRVVDGAVGAQWLAEFKKYLEKPITMLL
For B1, the binding [1] was “binds” and the binding [2] was “binds”.
